Experimental findings from PMC11221513 are described below.

For some assays here: A negative result means that nothing was seen under these conditions. Tags and fusion partners may be left off the protein sequences shown.

Holding throughout (assay): EMSA
Series [1] has as its target T1, IutR2 (Synechocystis sp. PCC 6803) (UniProt P72600).
T1 sequence (looked up): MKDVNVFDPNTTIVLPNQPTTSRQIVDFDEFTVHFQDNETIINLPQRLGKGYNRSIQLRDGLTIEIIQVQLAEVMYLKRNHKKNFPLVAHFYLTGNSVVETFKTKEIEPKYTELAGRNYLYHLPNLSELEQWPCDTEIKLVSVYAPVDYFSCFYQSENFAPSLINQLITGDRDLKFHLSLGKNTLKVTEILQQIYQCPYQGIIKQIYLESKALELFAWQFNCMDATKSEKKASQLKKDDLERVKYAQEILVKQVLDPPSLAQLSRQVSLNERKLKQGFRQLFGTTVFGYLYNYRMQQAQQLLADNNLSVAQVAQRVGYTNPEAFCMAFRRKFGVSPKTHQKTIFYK
Conditions: tbdt: 10 mM Tris-HCl pH 7.5, 50 mM KCl, 1 mM DTT, 0.1% BSA, 5% glycerol, 30 min 30 C, poly(dI-dC) competitor; furA/perR: 10 mM Tris-HCl pH 7.5, 50 mM KCl, 5 mM MgCl2; recombinant protein; residues 1-346; protein details: GST (pET41a); label: 5' biotin; probe letters rebuilt from the primers and the genome.

The target of series [2] is T2, IutR3 (Synechocystis sp. PCC 6803) (UniProt P72608).
T2 sequence (looked up): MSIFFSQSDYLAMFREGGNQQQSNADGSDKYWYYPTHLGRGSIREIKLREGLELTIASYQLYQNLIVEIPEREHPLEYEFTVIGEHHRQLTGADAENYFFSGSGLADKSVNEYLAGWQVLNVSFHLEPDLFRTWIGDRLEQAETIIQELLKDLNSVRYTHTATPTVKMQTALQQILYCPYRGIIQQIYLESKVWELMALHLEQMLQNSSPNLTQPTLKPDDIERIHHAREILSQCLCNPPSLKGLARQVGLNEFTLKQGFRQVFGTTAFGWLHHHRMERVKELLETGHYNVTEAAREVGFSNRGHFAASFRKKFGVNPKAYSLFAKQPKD
The note with it: tbdt: 10 mM Tris-HCl pH 7.5, 50 mM KCl, 1 mM DTT, 0.1% BSA, 5% glycerol, 30 min 30 C, poly(dI-dC) competitor; furA/perR: 10 mM Tris-HCl pH 7.5, 50 mM KCl, 5 mM MgCl2; recombinant protein; residues 1-330; protein details: GST (pET41a); label: 5' biotin; probe letters rebuilt from the primers and the genome.

Series [3] addresses T3, IutR1 (Synechocystis sp. PCC 6803) (UniProt P72595).
T3 sequence (looked up): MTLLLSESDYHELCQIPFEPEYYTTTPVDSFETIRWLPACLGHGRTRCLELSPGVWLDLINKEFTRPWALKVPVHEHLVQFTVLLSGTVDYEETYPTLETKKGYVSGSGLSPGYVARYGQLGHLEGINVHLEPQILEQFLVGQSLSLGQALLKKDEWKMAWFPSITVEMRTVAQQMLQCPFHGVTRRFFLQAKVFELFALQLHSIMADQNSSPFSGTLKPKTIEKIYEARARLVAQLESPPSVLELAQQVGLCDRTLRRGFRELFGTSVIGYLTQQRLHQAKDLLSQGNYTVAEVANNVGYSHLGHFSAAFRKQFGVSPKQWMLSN
The note with it: tbdt: 10 mM Tris-HCl pH 7.5, 50 mM KCl, 1 mM DTT, 0.1% BSA, 5% glycerol, 30 min 30 C, poly(dI-dC) competitor, furA/perR: 10 mM Tris-HCl pH 7.5, 50 mM KCl, 5 mM MgCl2, recombinant protein, residues 1-326, protein details: GST (pET41a), probe letters rebuilt from the primers and the genome.

As for “GCAGGTACCTTTAACCGGGAGAGACTATCAATTACTCAGCATCCACTGTTTAGGGCTGACACCAAACTGTTTGCGAAACGCCGCGGAGAAGTGGCCTAAGTGGCTATAACCCACGTTGTTAGCGACTTCGGCGACAGTGTAATTGCCCTGGGAGAGCAGATCTTTGGCCTGGTGAAGACGTTGTTGGGTCAGATAACCGATTACAGAGGTGCCAAACAGTTCCCGAAAACCACGGCGGAGGGTACGATCACATAACCCCACCTGCTGGGCCAACTCCAAAACGGAAGGAGGGCTTTCCAGTTGGGCAACTAGTCTGGCTCTCGCTTCGTAGATCTTCTCAAGTCGACTTC (double strand) [tbdt1 promoter]”, the binding result in series [1] is “binds”; in series [2] it was “no binding”; in series [3] (label: 5' biotin), “binds”.

As to “GCGAGCGGTACCTTACTGATAATTAATGGATATATTCTAGGGGAAAGCCAAAATGTATTTCTTTGTAGGACGGACTTTTTTCTTTGTGAAACGGACTTTTTAGATCATAACTTTTCTTCTGTCAGAATGAAAAACTGCTTACTACTATTTGTAGAAAATTGTCTTTTGATGGGTTTTGGGGCTAACTCCAAATTTTCGTCTAAATGCCATGCAAAAAGCTTCTGGATTGGTATATCCTACCCTTTGTGCTACCTGGGCCACGGATAAGTTATTATCTGCTAATAATTGCTGAGCCTGTTGCATGCGATAATTATACAGATAACCAAATACGGTCGTGCCAAATAGTTGACGAAAGCCTTGTTTTAGCTTACGCTCATTTAAGCTAACTTGTCGAGATAACTGTGCCAAGGAAGGAGGATCAAGTACTTGTTTGACCAAGATTTCCTGTGCATATTTCACTCTTTCTAAATCGTCTTTTTTTAATTGAGATGCTTTTTTTTCTGATTTAGTAGCATCCATACAATTAAATTGCCAGGCAAATAATTCTAAAGCCTTACTTTCTAAATAAATTTGTTTAATTATGCCTTGATAGGGACATTGATAAATTTGCTGTAATATCTCAGTGACTTTAAGTGTGTTTTTACCTAGTGATAAGTGGAACTTTAAATCACGATCGCCTGTGATTAATTGGTTAATTAAGCTAGGAGCAAAGTTTTCACTTTGATAAAAACAACTGAAATAATCAACAGGAGCATAAACACTAACTAATTTTATTTCAGTATCACATGGCCATTGCTCGAGGTCGACATA (double strand) [tbdt3 promoter]”, the binding result in series [1] is “no binding”; in series [2], “no binding”; in series [3] (label: 5' biotin), “binds”.

On to “GCGTCGACGGGAATTATCCAACAGATTTATCTAGAAAGTAAAGTCTGGGAACTCATGGCTCTCCACCTTGAGCAGATGCTACAAAATTCCTCTCCCAACTTGACCCAACCAACCCTTAAACCAGATGATATTGAACGAATTCACCATGCCAGAGAAATTTTATCCCAGTGCCTCTGTAACCCACCTTCCTTAAAAGGATTGGCTCGTCAGGTGGGCTTGAATGAATTTACTCTTAAACAGGGTTTCCGCCAAGTTTTTGGAACTACCGCATTCGGTTGGTTGCACCATCACCGTATGGAAAGGGTCAAAGAATTACTAGAAACGGGCCATTACAACGTCACTGAAGCTGCTCGGGAAGTGGGGTTTTCCAATCGGGGACATTTTGCCGCCTCGTTCCGCAAAAAGTTTGGCGTTAATCCTAAAGCCTATTCATTGTTTGCCAAACAACCTAAAGACTAAAAAATTCCAATTTAGGATCAAAATATTCCCTCCACTGATCAAAGTGATTGCCCGCCGTCCCCGTCTTACCGGTAAAGTATTTGAGAATTAGTTGCAGTTAAGGTTGTTCCTCCTGTGTTATCAGATGCCATGGCCGGCTGTCTCAACTAAGAATTTCAAGCTTTGGGTACCGCGG (double strand) [tbdt4 promoter]”, for which the binding result in series [1], in series [2] and in series [3] (label: 5' biotin) was “binds” throughout.

As to “GGTCATGGTTACCTCTGGCTATCTAAACGACTAAATTTTTCTGAGGGGATGGAGCATTTTTCATCAATGCTTGCCCTCTTTTCTCAGAATAGTTCTGAGATAGAAATAAGTCAAGCTTAAAAATTAATATTTTTTTTATAATTATTCTATCTAATAGTCCTTCTAGAAAATGTTAAGCTAGATAGACTATAGCCAAACAGTGCGGATCATTATCATTGGTGTGCTGGCCAGGACCCATGGTTCCTGAGGTTTGCCCAGAGGGACTTACCCATCAAAAATCAGCGAATGTTGCCGCACCGATGTTAGGAGGAACAGT (double strand) [perR promoter]”, the binding result in series [3] (5 mM Mg2+) is reported as “binds”.

With “GTTCTATGGGGGCGCTTAGAAGCAGTCTGGGCGATGGGATCCATCATAGTCCCTTGGCTCAGCAGTTGCAATAGTGGAGTCTTATTGAGAATAGATCCTAGAAAAAGTTTTATTTATCTTCCCCCGTCTGAAAATCTGAACCATGCGACCTTCCGCCCTTATTCCCCCCCAGCGTTATTTTGCCTACCTAACGTGGACCGATATTGAAGCTCTGCCGGATAAGGACAAAACCATTATTATTCAGCCCCTGGGTTCCATTGAACAGCATGGTCCCCATTTACCATTGGTGGTGGATGCAGCCA (double strand) [furA promoter]”, the binding result in series [3] (5 mM Mg2+) is given as “binds”.
